PubChem BioAssay AID602196 – INSERM – 2012
Test: 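Knock-downs that protect lung cancer cells from cisplatin or sensitise them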. Cells: human A549 lung cancer cells. Reagents: siRNA pair against human genes. Duration: 48 h transfection before cisplatin; time from cisplatin to read-out not stated. Challenge: cisplatin at a dose killing half of control-siRNA cells; exact dose and duration not given. Detection: 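Shift in cisplatin death relative to control siRNA, from -50 (all cells die) to +50 (no cells die); siRNAs harmful on their own scored 0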. Direction: two-siRNA summed score (-2 to +2): higher = both siRNAs protect from cisplatin killing; -2 means both sensitise. Hit rule: 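Each siRNA scores 0 if harmful alone by LDH or WST-1, otherwise +1 if it reduces and -1 if it increases cisplatin killing; a gene is active when both siRNAs agree (sum +2 or -2)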. Calls: active = both siRNAs shift cisplatin killing the same way; inactive = no consistent shift, or siRNA harmful alone.
This is a random part of about 23,000 reagents. In the full data, 455 (2%) were called active. 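Active includes both protection and sensitisation; some change values fall well beyond the stated -50 to +50 range.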 A number with no mark means an inactive call. Not all columns of the deposit are shown. The record does not give: the amount of reagent.

| target gene | two-siRNA summed score (-2 to +2) |
| --- | --- |
| LOC401848 | 0 |
| LOC391169 | 0 |
| LOC440742 | 1 |
| IGF2BP2 | 0 |
| OTUD5 | -1 |
| H3C12 | 0 |
| KCNS1 | 0 |
| ATXN2 | 1 |
| RAPGEF5 | 0 |
| MLLT6 | 0 |
| CAND2 | 0 |
| SYNPR | 1 |
| KIAA0186 | 0 |
| LOC392347 | 0 |

The list goes on; the last 2 above are carried over.
| target gene | two-siRNA summed score (-2 to +2) |
| --- | --- |
| KIAA0186 | 0 |
| LOC392347 | 0 |
| CHD6 | 0 |
| MICU3 | 0 |
| LOC122706 | 0 |
| KIR2DS4 | 1 |
| SULT2A1 | 1 |
| LOC441884 | 0 |
| FAM111B | 0 |
| MAP3K21 | 1 |
| KIR3DL2 | 0 |
